Results published in PMC8484674.
Results are given in words; binding and its absence hold for the method and conditions named. In cells and extracts the contact can be indirect. Here binding means that the protein was enriched with, or labelled near, the bait; the list need not be complete.

Sequences of proteins named here, by UniProt entry; tags and fusion partners are left off.
UniProt Q14145: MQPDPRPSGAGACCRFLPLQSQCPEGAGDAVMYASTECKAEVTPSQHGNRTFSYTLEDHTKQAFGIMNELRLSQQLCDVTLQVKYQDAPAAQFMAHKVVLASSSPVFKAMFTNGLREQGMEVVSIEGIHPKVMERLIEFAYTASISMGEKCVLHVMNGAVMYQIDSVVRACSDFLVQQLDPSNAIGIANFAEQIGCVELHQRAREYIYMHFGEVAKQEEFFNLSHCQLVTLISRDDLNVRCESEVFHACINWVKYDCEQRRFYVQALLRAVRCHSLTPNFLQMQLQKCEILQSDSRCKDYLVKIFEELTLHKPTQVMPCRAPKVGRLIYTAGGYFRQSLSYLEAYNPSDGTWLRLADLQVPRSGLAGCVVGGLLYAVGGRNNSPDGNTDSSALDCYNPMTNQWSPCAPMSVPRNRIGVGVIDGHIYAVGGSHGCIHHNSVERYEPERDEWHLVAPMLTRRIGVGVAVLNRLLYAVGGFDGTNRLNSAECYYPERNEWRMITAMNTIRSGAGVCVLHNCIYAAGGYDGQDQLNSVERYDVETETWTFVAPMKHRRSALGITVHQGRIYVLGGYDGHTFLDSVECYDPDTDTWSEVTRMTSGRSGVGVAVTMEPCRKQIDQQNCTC

B1: Zbed3 (protein, UniProt Q96IU2 1-234)
chain: MRSGEPACTMDQARGLDDAAARGGQCPGLGPAPTPTPPGRLGAPYSEAWGYFHLAPGRPGHPSGHWATCRLCGEQVGRGPGFHAGTSALWRHLRSAHRRELESSGAGSSPPAAPCPPPPGPAAAPEGDWARLLEQMGALAVRGSRRERELERRELAVEQGERALERRRRALQEEERAAAQARRELQAEREALQARLRDVSRREGALGWAPAAPPPLKDDPEGDRDGCVITKVLL
B2: Slc4a1ap (protein, UniProt Q9BWU0 1-742)
chain: MADILSQSETLASQDLSGDFKKPALPVSPAARSKAPASSSSNPEEVQKEGPTALQDSNSGEPDIPPPQPDCGDFRSLQEEQSRPPTAVSSPGGPARAPPYQEPPWGGPATAPYSLETLKGGTILGTRSLKGTSYCLFGRLSGCDVCLEHPSVSRYHAVLQHRASGPDGECDSNGPGFYLYDLGSTHGTFLNKTRIPPRTYCRVHVGHVVRFGGSTRLFILQGPEEDREAESELTVTQLKELRKQQQILLEKKMLGEDSDEEEEMDTSERKINAGSQDDEMGCTWGMGEDAVEDDAEENPIVLEFQQEREAFYIKDPKKALQGFFDREGEELEYEFDEQGHSTWLCRVRLPVDDSTGKQLVAEAIHSGKKKEAMIQCSLEACRILDTLGLLRQEAVSRKRKAKNWEDEDFYDSDDDTFLDRTGLIEKKRLNRMKKAGKIDEKPETFESLVAKLNDAERELSEISERLKASSQVLSESPSQDSLDAFMSEMKSGSTLDGVSRKKLHLRTFELRKEQQRLKGLIKIVKPAEIPELKKTETQTTGAENKAKKLTLPLFGAMKGGSKFKLKTGTVGKLPPKRPELPPTLMRMKDEPEVEEEEEEEEEEEKEKEEHEKKKLEDGSLSRPQPEIEPEAAVQEMRPPTDLTHFKETQTHENMSQLSEEEQNKDYQDCSKTTSLCAGPSASKNEYEKSRGELKKKKTPGPGKLPPTLSSKYPEDDPDYCVWVPPEGQSGDGRTHLNDKYGY
B3: Wdr1 (protein, UniProt O75083 1-606)
chain: MPYEIKKVFASLPQVERGVSKIIGGDPKGNNFLYTNGKCVILRNIDNPALADIYTEHAHQVVVAKYAPSGFYIASGDVSGKLRIWDTTQKEHLLKYEYQPFAGKIKDIAWTEDSKRIAVVGEGREKFGAVFLWDSGSSVGEITGHNKVINSVDIKQSRPYRLATGSDDNCAAFFEGPPFKFKFTIGDHSRFVNCVRFSPDGNRFATASADGQIYIYDGKTGEKVCALGGSKAHDGGIYAISWSPDSTHLLSASGDKTSKIWDVSVNSVVSTFPMGSTVLDQQLGCLWQKDHLLSVSLSGYINYLDRNNPSKPLHVIKGHSKSIQCLTVHKNGGKSYIYSGSHDGHINYWDSETGENDSFAGKGHTNQVSRMTVDESGQLISCSMDDTVRYTSLMLRDYSGQGVVKLDVQPKCVAVGPGGYAVVVCIGQIVLLKDQRKCFSIDNPGYEPEVVAVHPGGDTVAIGGVDGNVRLYSILGTTLKDEGKLLEAKGPVTDVAYSHDGAFLAVCDASKVVTVFSVADGYSENNVFYGHHAKIVCLAWSPDNEHFASGGMDMMVYVWTLSDPETRVKIQDAHRLHHVSSLAWLDEHTLVTTSHDASVKEWTITY

Target: His6-Halo-TEV-Keap1 (UniProt Q14145)
Experiment: affinity purification with mass spectrometry; SILAC HEK293T line expressing His6-Halo-TEV-Keap1, T-REX (Ht-preHNE(alkyne) 20 uM, 365 nm light) against control; pooled lysate (50 mM HEPES pH 7.6, 150 mM NaCl, 1% NP-40, 5 mM imidazole) on TALON resin 1 h at 4 °C, eluted with 200 mM imidazole …

binding, binds:
B1
B2
B3
